These are yes or no findings as the source states them, for the method shown. Some binding calls cover weakened binding; strength is not graded here.
B1: anti-PSMA heavy-chain antibody clone ID 325748 (antibody, V domains shown)
VH: QVQLVESGGGVVQPGRSLRLSCAASGFSFSSYGMHWVRQAPGKGLEGVAVIWYDGSNRYYADSVKGRFTISRDNSKNTLYLQMNSLRAEDTAVYYCAREPRIGYYYESSGYYSLDYRGQGTLVTVSS
B2: anti-PSMA heavy-chain antibody clone ID 325940 (antibody, V domains shown)
VH: QVQLVESGGGVVQPGRSLRLSCAASGFIFRSYGMHWVRQAPGKGPEWVAVIWYDGSNKYYADSVKGRFTISRDNSKNTLYLQMNSLRAEDTAVYYCAREPRIGYYYESSGYYSLDYRGQGTLVTVSS
B3: anti-PSMA heavy-chain antibody clone ID 345463 (antibody, V domains shown)
VH: QVQLVESGGGVVQPGRSLRLSCAASGFIFRSYGMHWVRQAPGKGPEWVAVIWYDGSNKYYADSVKGRFTISRDNSKNTLYLQMNSLRAEDTAVYYCAREPRIGYYYESSGYYSLDYRGQGTLVTVSS
B4: anti-PSMA heavy-chain antibody clone ID 325932 (antibody, V domains shown)
VH: QVQLVESGGGVVQPGRSLRLSCAASGFSFSSYGMHWVRQAPGKGLEGVAVIWYDGSNRYYADSVKGRFTISRDNSKNTLYLQMNSLRAEDTAVYYCAREPRIGYYYESSGYYSLDYRGQGTLVTVSS

Sequences of proteins named here, by UniProt entry; tags and fusion partners are left off.
UniProt Q04609: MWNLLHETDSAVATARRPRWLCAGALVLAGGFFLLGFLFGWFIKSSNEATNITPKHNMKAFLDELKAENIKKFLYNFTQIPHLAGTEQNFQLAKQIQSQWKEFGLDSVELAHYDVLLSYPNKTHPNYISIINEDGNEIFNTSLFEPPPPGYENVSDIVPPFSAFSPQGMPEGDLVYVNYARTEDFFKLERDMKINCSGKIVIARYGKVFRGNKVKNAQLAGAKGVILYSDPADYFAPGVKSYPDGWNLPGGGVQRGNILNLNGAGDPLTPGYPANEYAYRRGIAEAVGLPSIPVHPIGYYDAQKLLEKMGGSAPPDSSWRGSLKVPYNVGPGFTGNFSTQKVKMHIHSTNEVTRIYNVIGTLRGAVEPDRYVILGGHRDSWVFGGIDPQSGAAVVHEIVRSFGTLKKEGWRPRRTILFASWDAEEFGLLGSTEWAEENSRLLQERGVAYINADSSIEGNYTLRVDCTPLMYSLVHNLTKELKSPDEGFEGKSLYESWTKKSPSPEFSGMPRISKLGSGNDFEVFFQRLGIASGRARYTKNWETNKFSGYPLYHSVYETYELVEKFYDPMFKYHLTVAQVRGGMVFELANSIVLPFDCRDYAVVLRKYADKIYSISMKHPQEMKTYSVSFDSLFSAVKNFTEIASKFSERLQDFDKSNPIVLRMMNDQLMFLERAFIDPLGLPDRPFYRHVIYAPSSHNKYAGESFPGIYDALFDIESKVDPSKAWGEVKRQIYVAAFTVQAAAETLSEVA

target: human PSMA (Prostate Specific Membrane Antigen, Glutamate Carboxypeptidase II) (human) (UniProt Q04609); assay: ELISA protein and cell-binding assays

binding, binds:
B1
B2
B3
B4
